According to article PMC10163288:
This is one part of the list.

B1: il2ra_site2_2erj_sap_16_mot_HHH_b1_00941_000000060_0001_45_58_H_._HHH_b2_03642_0001_0000700020_0000001_0_0001 (protein)
chain: SSSSDEELRELFELANELMHAYARNNPELVEEIAREARELAERLNSPNAEEVIEWILEELSSSSS
B2: il2ra_site1_1z92_normal_mot_HHH_b1_00499_000000281_0001_1_17_H_._HHH_b1_01522_af2_0001_0000200033_0000001_0 (protein)
chain: SSSSSKEQAAELIVRILVEIAGLSEEQEEALEELLKELLERGVDFLEIIKRLDELARRLESSSSS
B3: il2ra_site2_3nfp_normal_mot_HHH_b2_05281_000000198_0001_39_56_H_._HHH_b2_02030_0001_0000300023_0000001_0 (protein)
chain: SSSSSDREEVEELLERAEQSDDPEEIRRLLAEATEIAYETRNSELFYLIAEVAFRLEQGSSSSSS
B4: il2ra_site1_1z92_normal_mot_HHH_b2_06133_af2_000000132_0001_1_18_H_._HHH_b2_03205_0001_0000100004_0000001_0 (protein)
chain: SSSSSDEEIRERVEELLEELREIEDPREWSKVLREALRLAAELRDPELRRLIHEVVRELASSSSS
B5: il2ra_site1_2b5i_normal_mot_f5ff40796168375b462bec8614a1db4a_0001_1_000000138_0001_53_65_H_._HHH_b1_01646_0001_0000100001_0000001_0 (protein)
chain: SSSSDEVTEDLLRAFLEEAEELLENGNPKEARSILHLARATARRRGNELLEEVERLLKEVRSSSS
B6: il2ra_site2_3nfp_sap_18_mot_HHH_b2_05281_000000198_0001_39_56_H_._4949e777cf0084a35dc4178a1d33e300_0001_0001_0000100013_0000001_0_0001 (protein)
chain: SSSSDAEEYVKAALALLKEAAERKDEEAFEKMFRLIELAIEDNNDEEAQRLLEELERLFNSSSSS
B7: il2ra_site2_2erj_sap_19_mot_d8db7d3d6fba55db16f38f4fb78be25a_0001_af2_000000045_0001_18_32_H_._HHH_b2_07174_af2_0001_0000100002_0000001_0_0001_af2pred_0001_1_af … (protein)
chain: SSSSDEEVREEVERLLEEAKKIEDPHKAASVVSEAAELAIKNDDEELLREISKISFELVGSSSSS
B8: il2ra_site2_2erj_normal_mot_6d5f7cbc25fed124e3eb7f952334b9cf_0001_af2_000000048_0001_1_13_H_._HHH_b1_02400_af2_0001_0000200016_0000001_0 (protein)
chain: SSSSDEKARELRKLFEELLELFKQGNLEEAEEILEEAIRRARELGDEEAVLQLELLLRMLSSSSS
B9: il2ra_site1_2b5i_sap_18_mot_HHH_b1_00835_000000236_0001_42_55_H_._HHH_b1_02049_af2_0001_0000300006_0000001_0_0001_af2pred_dldesign_0_af2pred (protein)
chain: SSSSSNPDARALVRELAEEARREEDPLLRRRLLKLARRVARKAEDPELLAEIERVEAELSSSSSS
B10: il2ra_site2_2erj_normal_mot_HHH_b2_08028_000000126_0001_18_34_H_._HHH_b1_05763_af2_0001_0000300014_0000001_1 (protein)
chain: SSSSDEEVEELLEEAKRLLEEGNPEEAHKVVSKAFELAYEEGNPELFSLVAELALEILRKSSSSS
B11: il2ra_site2_2erj_sap_24_mot_HHH_b2_07139_000000086_0001_40_57_H_._HHH_b2_03334_0001_0000200015_0000001_0_0001 (protein)
chain: SSSSDEEAEISLEAFREARRLFKNGNPEEAREILEEAIRELRELGNEELAETLENLLRFASSSSS
B12: il2ra_site1_1z92_sap_8_mot_add8a691351788dd45ba4deda1838316_0001_1_000000225_0001_37_51_H_._a445c54e3280ddb545be3b99cff61ffd_0001_1_af2_0001_0000300042_0000001_ … (protein)
chain: SSSSSEDKKEARELFQEANRLLRNGNEEEAEELLERALRLAEEAGSRSTARTIEDALKQLESSSS
B13: il2ra_site2_2erj_sap_21_mot_90f6a21de4ed711cb697bb9f61d9c40c_0001_af2_000000135_0001_36_50_H_._0a69b5c9b02373fb877a90f2b4b0d8e1_0001_1_0001_0000100002_0000001_0 … (protein)
chain: SSSSSDDLHEAYELAVRLLRLAANNDPEQFEEVSERLRELAERLQSDTLKEAIENLERFFSSSSS
B14: il2ra_site2_2erj_normal_mot_HHH_b1_05020_af2_000000060_0001_23_40_H_._HHH_b1_02182_af2_0001_0000100003_0000001_0 (protein)
chain: SSSSDEEEEIVRELVEEFNLSELAERFLERNARTLRESGVSEEEIERALEESARLLREAQSSSSS
B15: il2ra_site1_2b5i_sap_12_mot_HHH_b1_01346_af2_000000027_0001_1_20_H_._HHH_b2_00272_af2_0001_0000500041_0000001_0_0001_af2pred_dldesign_0_af2pred (protein)
chain: SSSSSDAWSRVDDLADKAFKVAKTDKEKAKEILEEALRLAEAAGDADLVKQTTDLLKYLESSSSS
B16: il2ra_site1_2b5i_normal_mot_HHH_b2_04910_000000118_0001_1_19_H_._HHH_b1_01775_0001_0000100002_0000001_0_af2pred_0001_af2pred_1 (protein)
chain: SSSSSDKEEAHELFHEANELDRQGDEEEARRVLEEALQLAEEGGNPSLFRLIEAALRLLGSSSSS
B17: il2ra_site2_2erj_sap_30_mot_64bd02d26d05ce9f1a62b616cea0b888_0001_af2_000000029_0001_36_49_H_._HHH_b2_07503_af2_0001_0000300057_0000001_0_0001 (protein)
chain: SSSSSDWEVYVRVWELLHEAAKIEDEEEREQVLEEARRLAEERNSPLLEMFVERLAEELSSSSSS
B18: il2ra_site1_3nfp_sap_21_mot_HHH_b2_04910_af2_000000236_0001_1_18_H_._4946fae19574d7b03d9e348227509a78_0001_0001_0000300023_0000001_0_0001_af2pred_0001_af2pred (protein)
chain: SSSDEREVHKLLKEALEAALKGNPEEARELLEEAERLAKELNNPRAEHTVEKALKSFERARSSSS
B19: il2ra_site2_3nfp_normal_mot_HHH_b2_06150_000000217_0001_39_53_H_._HHH_b2_02070_af2_0001_0000300033_0000001_0 (protein)
chain: SSSSSEEEVEELLRQAEKLLEKGDPEEARRVVARAALLAYELRNAELFYKIAELLLKIVGSSSSS
B20: il2ra_site1_1z92_sap_12_mot_c9a8daa1dfea21d1414aecde54be4f54_0001_1_af2_000000024_0001_32_46_H_._baf84f35d54589ae25ccad3ce5c0571a_0001_af2_0001_0000100002_00000 … (protein)
chain: SSSSTQKESLVRIAVRILVRMAQLSEEQEEELERLAEELIERGYDPLEILKILDEEALRLSSSSS
B21: il2ra_site1_3nfp_normal_mot_0eddeacbb14b769e73e254714f31e2f9_0001_af2_000000052_0001_37_51_H_._HHH_b2_04546_0001_0000800019_0000001_0 (protein)
chain: SSSSSDEEIREEVERLLEEAEKIEDTREASKVLEEAYRLARELGDFELADLIYEVARREISSSSS
B22: il2ra_site2_2erj_normal_mot_HHH_b1_02466_000000018_0001_22_38_H_._HHH_b2_04156_0002_0000700012_0000001_0 (protein)
chain: SSSSSSDLEELSEEIKEEFEEARSEEERHRLAWELLELVHKFGTRELIRLAKELIEILSSSSSSS
B23: il2ra_site2_2erj_sap_16_mot_HHH_b1_05944_000000221_0001_38_56_H_._HHH_b1_01483_af2_0001_0000700001_0000001_0_0001 (protein)
chain: SSSHELMEEAYKVANEASRLVAKNPEEAKEFVEEWIREAREKNDEFLEWLLRQVLELIKELSNSS
B24: il2ra_site1_2b5i_sap_10_mot_9e5b67f2fe50fe8120620fffc4d177d6_0001_af2_000000122_0001_1_12_H_._HHH_b2_06876_0001_0000100002_0000001_0_0001_af2pred_dldesign_0_af2 … (protein)
chain: SSSSSALREEIERLLEEARRLAAAGRPEEALRLLSRALYLAHALGDEEAIARIKALAEELESSSS

Biological target: il2ra, P01589
Test: yeast display titration

Apparent Kd, inactive:
B1 no binding seen, B2 no binding seen, B3 no binding seen, B4 no binding seen, B5 no binding seen, B6 no binding seen, B7 no binding seen, B8 no binding seen, B9 no binding seen, B10 no binding seen, B11 no binding seen, B12 no binding seen, B13 no binding seen, B14 no binding seen, B15 no binding seen, B16 no binding seen, B17 no binding seen, B18 no binding seen, B19 no binding seen, B20 no binding seen, B21 no binding seen, B22 no binding seen, B23 no binding seen, B24 no binding seen
